Measured values reported in PMC10981688.
No constants are given. Whether binding was seen depends on the method and setting. Binding seen in cells or lysates may run through a third protein. Some entries that bind do so weakly or less than the wild type.

Amino acid sequences for entries named in this document (tags omitted). A change or cut given only in a name is not applied to a line headed by its entry.
UniProt Q01518: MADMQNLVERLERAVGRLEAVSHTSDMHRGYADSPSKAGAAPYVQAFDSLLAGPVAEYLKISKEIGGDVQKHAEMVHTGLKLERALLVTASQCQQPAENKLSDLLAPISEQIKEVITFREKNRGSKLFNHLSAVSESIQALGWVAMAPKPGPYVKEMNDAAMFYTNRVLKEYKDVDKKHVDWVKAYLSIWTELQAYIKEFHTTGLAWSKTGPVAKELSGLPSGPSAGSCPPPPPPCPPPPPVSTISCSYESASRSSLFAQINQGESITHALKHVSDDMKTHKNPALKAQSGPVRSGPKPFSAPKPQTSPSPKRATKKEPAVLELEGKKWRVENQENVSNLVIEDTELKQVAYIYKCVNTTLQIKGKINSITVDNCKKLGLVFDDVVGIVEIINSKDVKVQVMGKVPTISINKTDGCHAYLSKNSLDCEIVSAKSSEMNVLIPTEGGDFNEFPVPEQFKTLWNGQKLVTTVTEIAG
UniProt Q05655: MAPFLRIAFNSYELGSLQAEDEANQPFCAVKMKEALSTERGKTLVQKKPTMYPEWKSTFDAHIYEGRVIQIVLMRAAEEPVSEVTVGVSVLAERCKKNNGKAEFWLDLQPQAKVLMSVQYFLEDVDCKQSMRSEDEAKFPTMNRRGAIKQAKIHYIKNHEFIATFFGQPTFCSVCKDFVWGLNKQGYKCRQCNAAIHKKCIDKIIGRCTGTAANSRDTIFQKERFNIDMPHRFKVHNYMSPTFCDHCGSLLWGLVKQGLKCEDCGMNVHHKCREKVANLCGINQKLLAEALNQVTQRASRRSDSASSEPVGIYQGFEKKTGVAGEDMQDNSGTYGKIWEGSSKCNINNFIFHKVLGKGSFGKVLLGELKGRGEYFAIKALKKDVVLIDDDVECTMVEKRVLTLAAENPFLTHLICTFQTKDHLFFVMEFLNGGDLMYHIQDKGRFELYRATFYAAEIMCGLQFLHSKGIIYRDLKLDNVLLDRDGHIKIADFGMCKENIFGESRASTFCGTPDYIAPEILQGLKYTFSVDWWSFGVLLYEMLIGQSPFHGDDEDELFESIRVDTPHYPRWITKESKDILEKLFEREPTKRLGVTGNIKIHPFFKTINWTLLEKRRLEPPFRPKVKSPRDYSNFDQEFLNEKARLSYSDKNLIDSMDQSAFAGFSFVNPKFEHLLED

Molecular target: CAP1, endogenous in THP-1 monocytes (human (endogenous in THP-1)) (UniProt Q01518)
Assay: co-IP; immunoprecipitation of endogenous proteins from THP-1 lysates (CAP1 and PCSK9 antibodies; CAP1, Syk and PKCδ), immunoblot

## PKCδ, endogenous in THP-1 monocytes (from UniProt Q05655 1-676) (enzyme)
  binding: binds
